{
  "source": "paper PMC10726352",
  "about": "“Discovery of KB-0742, a Potent, Selective, Orally Bioavailable Small Molecule Inhibitor of CDK9 for MYC-Dependent Cancers” (Journal of Medicinal Chemistry, 2023)",
  "experiment_in_all_cases": "OncoPanel Multiplexed Cytotoxicity Assay",
  "assay_type_in_all_cases": "cell-based",
  "key": {"MDA-MB-231": {"test_system": "MDA-MB-231", "conditions": "Homo sapiens, MDA-MB-231, 72 h"}, "BT-20": {"test_system": "BT-20", "conditions": "Homo sapiens, BT-20, 72 h, read-out: Cell count IC50"}, "Hs 578T": {"test_system": "Hs 578T", "conditions": "Homo sapiens, 72 h"}, "MT-3": {"test_system": "MT-3", "conditions": "MT-3, 72 h"}, "BT-549": {"test_system": "BT-549", "conditions": "Homo sapiens, BT-549, 72 h"}},
  "note": "pEC50, pIC50: −log10 of the molar value.",
  "data": [
    {"smiles": "CN[C@@H]1C[C@H]2O[C@@](C)([C@@H]1OC)n1c3ccccc3c3c4c(c5c6ccccc6n2c5c31)C(=O)NC4", "note": "[Staurosporine]", "values": [
      {"measurement": "pEC50", "setting": "MDA-MB-231; read-out: Cell Count EC50", "value": 8.93},
      {"measurement": "GI50", "setting": "MDA-MB-231; read-out: Cell count GI50", "value": 1.24, "unit": "nM"},
      {"measurement": "pIC50", "setting": "BT-20", "value": 7.20},
      {"measurement": "pEC50", "setting": "Hs 578T; read-out: Cell Count EC50", "value": 8.79},
      {"measurement": "pIC50", "setting": "Hs 578T; read-out: Cell count IC50", "value": 8.62},
      {"measurement": "pEC50", "setting": "MT-3; read-out: Cell Count EC50", "value": 7.94},
      {"measurement": "pIC50", "setting": "MT-3; read-out: Cell count IC50", "value": 7.87},
      {"measurement": "pEC50", "setting": "BT-549; read-out: Cell Count EC50", "value": 7.99},
      {"measurement": "pIC50", "setting": "BT-549; read-out: Cell count IC50", "value": 7.94}
    ]}
  ]
}
